Values joined by “and” are separate entries in the source; they are usually repeats but may differ in a detail not shown here. Identical values can stand only once. The whole screen tested about 300,000 compounds, of which about 5,400 (1.8%) were called active. The shares of active, inactive and inconclusive entries below differ from those in the screen. Calls follow the shape of the full dose curve; tested in HEK293 cells. A potency beside an inconclusive call is a rough fit, not a confirmed value.
Assay: qHTS for inhibitors of binding or entry into cells for Marburg Virus
Conditions: Marburg virus pseudotyped entry inhibition, cell reporter; series mostly up to 37.8 µM
Potency is read from the fitted curve at half-maximal effect.

**Q.** For `CC1CCc2c(sc3nnn(CC(=O)Nc4ccccc4Cl)c(=O)c23)C1` (configuration not stated), which Potency is on record?
**A.** Its Potency is “inactive”.

**Q.** With `Fc1ccc(NCc2nc3ccccc3n2CCOc2ccccc2Cl)cc1` as the compound, how does the Potency read?
**A.** The Potency was inconclusive: 7.94 µM [activator, partial curve].

**Q.** Which Potency does the source give for `CN(C)c1ccc(/C=C(/C#N)C(=O)Nc2nc3c(s2)CCN(Cc2ccccc2)C3)cc1` here?
**A.** The Potency was “inactive”.

**Q.** Which Potency does the source give for `C=CCn1c(SCC(N)=O)nnc1-c1cnccn1` here?
**A.** The Potency was inconclusive: 35.5 µM [inhibitor, partial curve, poor fit].

**Q.** For `CCOC(=O)C1=C(CN(CC)Cc2ccccc2)NC(=O)NC1c1ccc(Cl)cc1` (configuration not stated), which Potency is on record?
**A.** Its Potency is inconclusive: 2 µM [inhibitor, partial curve, poor fit].

**Q.** For `Cc1ccc(OCCSc2nc3ccc(NC(=O)COc4ccc(C)cc4)cc3s2)cc1`, which Potency is on record?
**A.** The Potency was inconclusive: 11.2 µM [activator, partial curve].

**Q.** With `O=C(NC1CCCC1)c1cccc(Oc2ccccc2)c1` as the compound, how does the Potency read?
**A.** Its Potency is “inactive”.

**Q.** With `C#CC[C@@]1(C(=O)OC)C=C[C@@H](C)[C@H](c2ccccc2Br)N1C(=O)C(F)(F)F` as the compound, how does the Potency read?
**A.** The Potency was “inactive”.

**Q.** Which Potency does the source give for `CCOc1ccc(C2Nc3ccccc3NC3=C2C(=O)CC(C)(C)C3)cc1OC` (configuration not stated) here?
**A.** The Potency was inconclusive: 12.6 µM [inhibitor, single point].

**Q.** Which Potency does the source give for `COc1ccc(Cl)cc1NC(=O)N1CCC2(CC1)Oc1ccccc1C(=O)N2Cc1ccc(F)cc1` here?
**A.** Its Potency is “inactive”.

**Q.** For `Cc1[nH]c(=O)[nH]c(=O)c1S(=O)(=O)N(C)Cc1ccccc1`, which Potency is on record?
**A.** The Potency was inconclusive: 35.5 µM [inhibitor, single point].

**Q.** Which Potency does the source give for `Cc1nn(CC(=O)c2ccc(Cl)s2)c(C)c1[N+](=O)[O-]` here?
**A.** Its Potency is inconclusive: 0.562 µM [activator, full curve, poor fit].

**Q.** For `COc1ccc(-c2csc(=NCCO)n2-c2ccccc2)cc1`, which Potency is on record?
**A.** Its Potency is inconclusive: 11.2 µM [inhibitor, partial curve, poor fit].

**Q.** With `COC1(C(F)(F)F)NC(=O)N(c2ccc(F)cc2)C1=O` (configuration not stated) as the compound, how does the Potency read?
**A.** The Potency was “inactive”.

**Q.** For `Clc1ccc2c(NCc3ccccc3)ccnc2c1`, which Potency is on record?
**A.** The Potency was inconclusive: 10 µM [inhibitor, partial curve, poor fit].

**Q.** With `COC(=O)C1=CN(c2ccc(OC)cc2)C=C(C(=O)OC)C1c1ccc(C)c([N+](=O)[O-])c1` as the compound, how does the Potency read?
**A.** Its Potency is inconclusive: 7.94 µM [inhibitor, partial curve, poor fit].

**Q.** For `CCNC(=O)CC1SC(=Nc2cccc(Cl)c2C)N(C)C1=O` (configuration not stated), which Potency is on record?
**A.** The Potency was inconclusive: 16.4 µM [inhibitor, partial curve, poor fit].

**Q.** Which Potency does the source give for `COc1cccc(CCNC(=O)c2cnc3sc(N4CCCC4)nn3c2=O)c1` here?
**A.** Its Potency is “inactive”.

**Q.** Which Potency does the source give for `CS(=O)(=O)N1CCN(Cc2ccccc2C(F)(F)F)CC1` here?
**A.** The Potency was “inactive”.

**Q.** Which Potency does the source give for `CC(C)c1ccc(-c2nc(N3CCCC3)nc3n[nH]c(N)c23)cc1` here?
**A.** The Potency was inconclusive: 5.01 µM [inhibitor, partial curve].

**Q.** Which Potency does the source give for `CCOC(=O)c1c(C)nn(-c2ncccc2NC(=O)CCC(=O)O)c1C` here?
**A.** Its Potency is inconclusive: 0.562 µM [activator, full curve, poor fit].

**Q.** For `Cc1cc(C)c2nc(NNC(=O)c3ccc(S(=O)(=O)N4CC(C)CC(C)C4)cc3)sc2c1` (configuration not stated), which Potency is on record?
**A.** Its Potency is active: 14.6 µM.

**Q.** For `CC(=O)OC(CC(=O)O)C[N+](C)(C)C` (configuration not stated), which Potency is on record?
**A.** Its Potency is inconclusive: 29.1 µM [inhibitor, single point].

**Q.** With `COc1cccc(-c2nn(C)c3sc(C(=O)N4CCN(c5cccc(C(F)(F)F)c5)CC4)cc23)c1` as the compound, how does the Potency read?
**A.** The Potency was “inactive”.

**Q.** For `Fc1ccccc1CNC1CN2CCC1CC2` (configuration not stated), which Potency is on record?
**A.** The Potency was “inactive”.

**Q.** Which Potency does the source give for `O=C(NCCCN1CCOCC1)c1ccc(S(=O)(=O)Nc2ccccc2F)cc1` here?
**A.** Its Potency is inconclusive: 0.355 µM [inhibitor, partial curve, poor fit].

**Q.** With `O=C1[C@H]2[C@H]3[C@H](O)[C@H](O)C/C(=N/OC[C@@H](O)COCc4ccco4)[C@H]3CC[C@@H]2C(=O)N1C[C@@H]1CCCO1` as the compound, how does the Potency read?
**A.** Its Potency is “inactive”.

**Q.** With `CCOC(=O)C1CCCN(C(=O)c2ccc(Cl)c(S(=O)(=O)N3CCCCCC3)c2)C1` (configuration not stated) as the compound, how does the Potency read?
**A.** The Potency was inconclusive: 2.82 µM [inhibitor, full curve].

**Q.** For `Cc1ccc(NC(=O)CCNS(=O)(=O)c2cccs2)cc1F`, which Potency is on record?
**A.** Its Potency is “inactive”.

**Q.** With `COc1ccccc1N(CC(=O)NCCSc1ccccc1)S(=O)(=O)c1ccc(C)cc1` as the compound, how does the Potency read?
**A.** Its Potency is inconclusive: 14.1 µM [inhibitor, single point].

**Q.** Which Potency does the source give for `CCC(=O)c1ccc(OCC(O)CN(CCc2ccccc2)Cc2ccccc2)cc1` (configuration not stated) here?
**A.** Its Potency is inconclusive: 18.3 µM [inhibitor, partial curve, poor fit].

**Q.** With `Cc1ccc(C(C)C)c(OCC(=O)NNC2=CC(=O)CC(C)(C)C2)c1` as the compound, how does the Potency read?
**A.** Its Potency is inconclusive: 35.5 µM [inhibitor, partial curve, poor fit].

**Q.** With `CN1CCN(CC(=O)N2CCn3c4c(c5cc(C6CCCCC6)ccc53)CCCC42)CC1` (configuration not stated) as the compound, how does the Potency read?
**A.** Its Potency is inconclusive: 10 µM [inhibitor, partial curve, poor fit].

**Q.** With `NC(=O)c1ccccc1NC(=O)CCc1ccccc1` as the compound, how does the Potency read?
**A.** Its Potency is “inactive”.

**Q.** For `COc1ccccc1CNC(=O)CSc1ncc(C(=O)Nc2ccccc2)c(=O)n1C`, which Potency is on record?
**A.** Its Potency is inconclusive: 3.16 µM [activator, single point].

**Q.** With `Cc1ccc(-c2nc3ncccc3o2)cc1NC(=S)NC(=O)c1ccco1` as the compound, how does the Potency read?
**A.** Its Potency is inconclusive: 7.94 µM [activator, partial curve, poor fit].

**Q.** For `CC1(C)Cc2c(sc3nc(-c4ccccc4)oc(=O)c23)CO1`, which Potency is on record?
**A.** Its Potency is “inactive”.

**Q.** Which Potency does the source give for `COc1ccc(NC(=O)C/C(C)=N/NC(=O)c2ccco2)c([N+](=O)[O-])c1` here?
**A.** The Potency was “inactive”.

**Q.** For `Cc1cccc(C)c1NC(=O)CN(C)CC(=O)Nc1ccccc1Oc1ccccc1`, which Potency is on record?
**A.** The Potency was inconclusive: 5.62 µM [activator, single point].

**Q.** Which Potency does the source give for `COC(=O)C/C=C/[C@@H](C)[C@H](OC)c1c(Br)ccc2c1OCO2` here?
**A.** The Potency was inconclusive: 0.531 µM [inhibitor, partial curve, poor fit].

**Q.** For `O=C1Cc2cc(NS(=O)(=O)c3ccc(F)cc3)cc3c2N1CCC3`, which Potency is on record?
**A.** The Potency was “inactive”.

**Q.** Which Potency does the source give for `COc1ccccc1C(=O)NNC1CC(=O)N(c2ccc3c(c2)OCCO3)C1=O` (configuration not stated) here?
**A.** Its Potency is inconclusive: 0.794 µM [inhibitor, single point].

**Q.** For `Cc1ccc(CNC(=O)CCN2C(=O)C(C)Oc3ccc(C)cc32)cc1` (configuration not stated), which Potency is on record?
**A.** Its Potency is inconclusive: 7.94 µM [inhibitor, partial curve, poor fit].

**Q.** With `Fc1ccc(CN2C3=NCCCN3c3ccccc32)cc1` as the compound, how does the Potency read?
**A.** Its Potency is inconclusive: 10 µM [inhibitor, partial curve, poor fit].

**Q.** For `COc1ccc(-n2nc(C(=O)NCC(=O)Nc3cc(OC)c(OC)c(OC)c3)c3ccccc3c2=O)cc1Cl`, which Potency is on record?
**A.** The Potency was inconclusive: 2.51 µM [inhibitor, partial curve, poor fit].

**Q.** For `Cc1ccc(Nc2c3c(nc4ccccc24)CCC3)cc1F`, which Potency is on record?
**A.** The Potency was inconclusive: 20 µM [inhibitor, partial curve, poor fit].

**Q.** Which Potency does the source give for `O=C(CCC1N=C2c3ccccc3N=C(SCc3cccc(Cl)c3)N2C1=O)NCc1ccco1` (configuration not stated) here?
**A.** The Potency was “inactive”.

**Q.** Which Potency does the source give for `CN(C)c1ccc(NC(=O)/C=C/c2c(Cl)cccc2Cl)cc1` here?
**A.** The Potency was inconclusive: 11.2 µM [inhibitor, partial curve].

**Q.** With `Cc1cccc(COc2ccc(-c3cc(C(F)(F)F)n4nc(C)cc4n3)cc2)c1` as the compound, how does the Potency read?
**A.** Its Potency is inconclusive: 35.5 µM [activator, single point].

**Q.** For `Cc1cc(/C=C2\NC(=O)N(Cc3ccc(Cl)cc3)C2=O)c(C)n1C`, which Potency is on record?
**A.** Its Potency is “inactive”.

**Q.** For `NNCCc1ccccc1`, which Potency is on record?
**A.** The Potency was inconclusive: 580 nM [activator, full curve, poor fit] and inconclusive: 2.91 µM [activator, partial curve].

**Q.** Which Potency does the source give for `Cc1c(Cl)cccc1NC(=O)CCS(=O)(=O)c1cccc2nsnc12` here?
**A.** Its Potency is “inactive”.

**Q.** With `Cc1ccc(NC(=O)c2ccc(Cl)c(S(=O)(=O)N3CCc4ccccc43)c2)nc1` as the compound, how does the Potency read?
**A.** Its Potency is inconclusive: 35.5 µM [inhibitor, partial curve, poor fit].

**Q.** With `CCOc1ccc(S(=O)(=O)N2CCC(C(=O)NCc3ccco3)CC2)cc1` as the compound, how does the Potency read?
**A.** The Potency was “inactive”.

**Q.** With `O=C(NCCN1CCOCC1)N1CCOCC1` as the compound, how does the Potency read?
**A.** Its Potency is inconclusive: 32.6 µM [inhibitor, partial curve, poor fit].

**Q.** Which Potency does the source give for `CC1Cc2ccccc2N1c1ncnc(N)c1[N+](=O)[O-]` (configuration not stated) here?
**A.** The Potency was “inactive”.

**Q.** With `NC(=O)c1ccc(Cc2ncc(C(F)(F)F)cc2Cl)s1` as the compound, how does the Potency read?
**A.** Its Potency is inconclusive: 0.501 µM [activator, partial curve, poor fit].

**Q.** For `CC(=O)Nc1cccc(C(=O)/C=C/c2ccc(Br)cc2)c1`, which Potency is on record?
**A.** Its Potency is active: 14.6 µM.

**Q.** Which Potency does the source give for `CCOC(=O)CN1C(=O)S/C(=C/c2cccc([N+](=O)[O-])c2O)C1=O` here?
**A.** Its Potency is inconclusive: 5.01 µM [activator, single point].

**Q.** For `COc1cc(C(=O)N2CCC(n3c(C)nc4cc(F)ccc43)CC2)cc(OC)c1OC`, which Potency is on record?
**A.** The Potency was inconclusive: 6.31 µM [inhibitor, partial curve, poor fit].

**Q.** Which Potency does the source give for `CCN(C(=O)c1nn(C)c2c1CSc1ccccc1-2)c1cccc(C)c1` here?
**A.** Its Potency is “inactive”.

**Q.** For `CC(=O)NCc1ccc(S(=O)(=O)N2CCN(S(=O)(=O)c3ccc4ccccc4c3)CC2)cc1`, which Potency is on record?
**A.** The Potency was inconclusive: 5.62 µM [inhibitor, partial curve, poor fit].

**Q.** With `O=S(=O)(N/N=C/c1ccc(N2CCOCC2)cc1)c1ccccc1` as the compound, how does the Potency read?
**A.** The Potency was inconclusive: 0.631 µM [inhibitor, full curve, poor fit].

**Q.** Which Potency does the source give for `CN(C)c1cc(-c2ccc(F)cc2)oc(=O)c1Cl` here?
**A.** Its Potency is inconclusive: 3.16 µM [inhibitor, single point].

**Q.** For `COc1ccc(N(C(=O)c2ccccc2OC)C2C=CS(=O)(=O)C2)c(OC)c1` (configuration not stated), which Potency is on record?
**A.** The Potency was “inactive”.

**Q.** Which Potency does the source give for `Clc1ccc(CSc2nnc(Cn3cnc4ccccc43)o2)cc1` here?
**A.** Its Potency is inconclusive: 7.08 µM [inhibitor, full curve, poor fit].

**Q.** Which Potency does the source give for `CCN(Cc1nc2ccccc2c(=O)[nH]1)C(=O)c1cccc(NC(=O)c2cccs2)c1` here?
**A.** Its Potency is “inactive”.
